Measurements reported in paper PMC8242032, “Non-canonical function of DGCR8 in DNA double-strand break repair signaling and tumor radioresistance” (Nature Communications, 2021).
These are yes or no findings as the source states them, for the method shown. In cells and extracts the contact can be indirect. Some results given as binding are weak or reduced against the parent protein; the word gives no strength. Tags and fused reporters may be left off the sequences shown.

The chains behind the UniProt entries cited, without tags or fusion partners.
UniProt Q14694: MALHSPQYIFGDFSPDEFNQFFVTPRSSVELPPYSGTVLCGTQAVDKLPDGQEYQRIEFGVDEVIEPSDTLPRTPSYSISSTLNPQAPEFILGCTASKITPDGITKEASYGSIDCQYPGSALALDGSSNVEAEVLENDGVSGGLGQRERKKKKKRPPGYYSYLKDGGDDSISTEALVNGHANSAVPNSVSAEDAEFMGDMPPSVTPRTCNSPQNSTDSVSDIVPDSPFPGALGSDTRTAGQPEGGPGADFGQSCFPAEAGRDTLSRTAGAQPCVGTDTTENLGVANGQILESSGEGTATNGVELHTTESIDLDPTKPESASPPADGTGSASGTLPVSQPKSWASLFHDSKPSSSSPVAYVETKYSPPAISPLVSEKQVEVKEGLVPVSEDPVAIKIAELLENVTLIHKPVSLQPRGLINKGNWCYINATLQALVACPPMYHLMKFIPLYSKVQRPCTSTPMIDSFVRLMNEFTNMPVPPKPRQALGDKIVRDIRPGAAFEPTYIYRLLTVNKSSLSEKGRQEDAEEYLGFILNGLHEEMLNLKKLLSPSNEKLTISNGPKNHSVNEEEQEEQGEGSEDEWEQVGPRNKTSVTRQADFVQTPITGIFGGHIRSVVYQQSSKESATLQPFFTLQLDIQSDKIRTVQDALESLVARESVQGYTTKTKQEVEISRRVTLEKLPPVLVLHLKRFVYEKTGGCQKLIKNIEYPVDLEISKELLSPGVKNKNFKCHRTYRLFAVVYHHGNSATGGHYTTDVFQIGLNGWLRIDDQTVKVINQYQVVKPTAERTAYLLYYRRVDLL

Columns and labels:
Test in all cases: pull-down; SFB-tagged DUBs individually co-transfected with MYC-DGCR8 into HEK293T cells; pulldown with S-protein beads, 4 °C, 2 h; immunoblotting for FLAG and MYC; screen and confirmatory pulldown
SFB-USP43 (human) = molecular target: T1, SFB-USP43 (human) (UniProt Q70EL4)
T1 sequence: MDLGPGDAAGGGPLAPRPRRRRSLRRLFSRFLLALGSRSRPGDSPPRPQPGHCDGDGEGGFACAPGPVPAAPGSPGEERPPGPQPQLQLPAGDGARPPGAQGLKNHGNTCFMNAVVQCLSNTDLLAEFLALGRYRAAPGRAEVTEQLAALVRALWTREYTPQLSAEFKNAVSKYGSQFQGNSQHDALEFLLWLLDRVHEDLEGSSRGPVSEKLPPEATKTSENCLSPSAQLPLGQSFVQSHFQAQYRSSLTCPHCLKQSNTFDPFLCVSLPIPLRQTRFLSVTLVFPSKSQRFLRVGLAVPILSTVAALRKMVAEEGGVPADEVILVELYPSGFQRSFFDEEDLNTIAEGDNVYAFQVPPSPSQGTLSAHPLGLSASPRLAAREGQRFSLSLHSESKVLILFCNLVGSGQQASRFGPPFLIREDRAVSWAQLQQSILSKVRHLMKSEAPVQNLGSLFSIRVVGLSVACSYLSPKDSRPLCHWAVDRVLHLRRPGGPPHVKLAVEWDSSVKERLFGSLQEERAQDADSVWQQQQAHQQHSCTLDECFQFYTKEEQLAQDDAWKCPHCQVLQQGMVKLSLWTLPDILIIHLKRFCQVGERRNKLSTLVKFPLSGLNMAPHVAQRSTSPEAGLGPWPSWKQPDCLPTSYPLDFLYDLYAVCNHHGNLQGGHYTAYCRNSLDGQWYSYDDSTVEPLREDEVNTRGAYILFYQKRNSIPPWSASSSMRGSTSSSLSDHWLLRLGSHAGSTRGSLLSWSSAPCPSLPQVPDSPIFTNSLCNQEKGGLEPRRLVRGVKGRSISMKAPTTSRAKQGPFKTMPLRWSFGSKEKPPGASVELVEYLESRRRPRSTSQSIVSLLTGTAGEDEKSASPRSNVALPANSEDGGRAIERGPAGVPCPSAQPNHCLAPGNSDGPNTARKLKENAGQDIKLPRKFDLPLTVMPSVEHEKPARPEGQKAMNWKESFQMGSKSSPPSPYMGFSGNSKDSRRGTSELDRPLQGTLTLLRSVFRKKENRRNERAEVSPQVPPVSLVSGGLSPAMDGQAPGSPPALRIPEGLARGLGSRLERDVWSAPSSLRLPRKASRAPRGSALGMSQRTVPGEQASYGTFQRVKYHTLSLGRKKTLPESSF

SFB-USP51 (human) = molecular target: T2, SFB-USP51 (human) (UniProt Q70EK9)
T2 sequence: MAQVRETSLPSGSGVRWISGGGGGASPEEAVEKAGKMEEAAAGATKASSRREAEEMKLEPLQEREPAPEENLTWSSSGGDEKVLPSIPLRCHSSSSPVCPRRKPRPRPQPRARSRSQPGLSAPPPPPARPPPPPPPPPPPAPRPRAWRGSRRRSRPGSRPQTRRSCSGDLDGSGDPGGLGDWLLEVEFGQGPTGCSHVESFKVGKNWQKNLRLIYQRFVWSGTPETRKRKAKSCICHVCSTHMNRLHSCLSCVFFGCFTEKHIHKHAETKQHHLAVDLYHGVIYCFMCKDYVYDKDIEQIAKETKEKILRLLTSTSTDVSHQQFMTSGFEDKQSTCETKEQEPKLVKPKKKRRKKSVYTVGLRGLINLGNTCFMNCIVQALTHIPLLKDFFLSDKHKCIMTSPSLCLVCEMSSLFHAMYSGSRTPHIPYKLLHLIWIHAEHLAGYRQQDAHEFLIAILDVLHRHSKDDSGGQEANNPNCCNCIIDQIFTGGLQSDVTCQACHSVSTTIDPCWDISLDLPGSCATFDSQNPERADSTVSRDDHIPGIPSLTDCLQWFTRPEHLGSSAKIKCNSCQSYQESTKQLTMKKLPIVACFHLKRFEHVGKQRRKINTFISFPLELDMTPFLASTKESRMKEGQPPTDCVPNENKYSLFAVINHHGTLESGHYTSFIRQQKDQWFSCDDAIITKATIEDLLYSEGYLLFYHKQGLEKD

SFB-USP39 (human) = molecular target: T3, SFB-USP39 (human) (UniProt Q53GS9)
T3 sequence: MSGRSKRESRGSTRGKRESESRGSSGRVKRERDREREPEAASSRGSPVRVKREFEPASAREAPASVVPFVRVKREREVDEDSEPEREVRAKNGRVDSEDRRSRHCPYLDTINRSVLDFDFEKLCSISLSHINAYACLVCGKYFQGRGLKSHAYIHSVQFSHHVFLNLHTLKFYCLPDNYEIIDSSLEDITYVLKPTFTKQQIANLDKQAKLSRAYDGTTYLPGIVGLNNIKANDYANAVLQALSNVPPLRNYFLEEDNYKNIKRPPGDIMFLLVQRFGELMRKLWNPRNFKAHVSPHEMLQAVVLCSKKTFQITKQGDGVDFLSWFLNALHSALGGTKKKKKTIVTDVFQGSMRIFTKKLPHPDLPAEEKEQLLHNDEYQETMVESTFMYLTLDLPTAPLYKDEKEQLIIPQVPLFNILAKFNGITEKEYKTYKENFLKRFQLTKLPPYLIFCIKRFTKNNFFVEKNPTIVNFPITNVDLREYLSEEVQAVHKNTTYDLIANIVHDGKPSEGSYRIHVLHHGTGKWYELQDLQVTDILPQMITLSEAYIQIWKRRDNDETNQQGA

SFB-USP10 (human) = SFB-USP10 (human) (UniProt Q14694)

Measured: binding

B1: MYC-DGCR8 (wild-type, full-length) (protein, UniProt Q8WYQ5 1-773)
chain: METDESPSPLPCGPAGEAVMESRARPFQALPREQSPPPPLQTSSGAEVMDVGSGGDGQSELPAEDPFNFYGASLLSKGSFSKGRLLIDPNCSGHSPRTARHAPAVRKFSPDLKLLKDVKISVSFTESCRSKDRKVLYTGAERDVRAECGLLLSPVSGDVHACPFGGSVGDGVGIGGESADKKDEENELDQEKRVEYAVLDELEDFTDNLELDEEGAGGFTAKAIVQRDRVDEEALNFPYEDDFDNDVDALLEEGLCAPKKRRTEEKYGGDSDHPSDGETSVQPMMTKIKTVLKSRGRPPTEPLPDGWIMTFHNSGVPVYLHRESRVVTWSRPYFLGTGSIRKHDPPLSSIPCLHYKKMKDNEEREQSSDLTPSGDVSPVKPLSRSAELEFPLDEPDSMGADPGPPDEKDPLGAEAAPGALGQVKAKVEVCKDESVDLEEFRSYLEKRFDFEQVTVKKFRTWAERRQFNREMKRKQAESERPILPANQKLITLSVQDAPTKKEFVINPNGKSEVCILHEYMQRVLKVRPVYNFFECENPSEPFGASVTIDGVTYGSGTASSKKLAKNKAARATLEILIPDFVKQTSEEKPKDSEELEYFNHISIEDSRVYELTSKAGLLSPYQILHECLKRNHGMGDTSIKFEVVPGKNQKSEYVMACGKHTVRGWCKNKRVGKQLASQKILQLLHPHVKNWGSLLRMYGRESSKMVKQETSDKSVIELQQYAKKNKPNLHILSKLQEEMKRLAEEREETRKKPKMSIVASAQPGGEPLCTVDV
binds: all assays above
